In PMC9810533:
No constants are given. Whether binding was seen depends on the method and setting. In cells and extracts the contact can be indirect. Some entries that bind do so weakly or less than the wild type.

Chains of the proteins cited; added tags and fusions are not shown. Lines headed by an entry give the natural chain unless they say otherwise; changes in a name come on top. Residues count along the entry.
UniProt P06332, residues 27-457: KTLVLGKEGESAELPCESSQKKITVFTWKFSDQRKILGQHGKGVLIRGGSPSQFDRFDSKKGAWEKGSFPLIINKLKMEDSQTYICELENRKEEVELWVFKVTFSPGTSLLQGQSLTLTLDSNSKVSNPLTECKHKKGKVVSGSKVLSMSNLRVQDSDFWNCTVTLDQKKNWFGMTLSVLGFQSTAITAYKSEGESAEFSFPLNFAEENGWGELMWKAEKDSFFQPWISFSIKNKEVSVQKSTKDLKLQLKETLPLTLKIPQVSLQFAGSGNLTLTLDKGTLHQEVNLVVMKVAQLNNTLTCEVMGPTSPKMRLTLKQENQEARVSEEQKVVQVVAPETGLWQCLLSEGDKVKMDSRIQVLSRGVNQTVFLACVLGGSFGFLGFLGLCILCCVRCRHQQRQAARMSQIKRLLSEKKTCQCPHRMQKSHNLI
UniProt P01731: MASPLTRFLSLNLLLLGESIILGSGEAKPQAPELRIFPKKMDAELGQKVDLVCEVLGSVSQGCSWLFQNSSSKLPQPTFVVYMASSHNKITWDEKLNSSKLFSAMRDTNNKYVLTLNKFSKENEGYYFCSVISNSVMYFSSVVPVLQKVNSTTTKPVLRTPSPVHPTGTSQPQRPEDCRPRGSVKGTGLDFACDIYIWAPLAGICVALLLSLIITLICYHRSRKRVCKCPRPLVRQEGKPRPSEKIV
UniProt P10300: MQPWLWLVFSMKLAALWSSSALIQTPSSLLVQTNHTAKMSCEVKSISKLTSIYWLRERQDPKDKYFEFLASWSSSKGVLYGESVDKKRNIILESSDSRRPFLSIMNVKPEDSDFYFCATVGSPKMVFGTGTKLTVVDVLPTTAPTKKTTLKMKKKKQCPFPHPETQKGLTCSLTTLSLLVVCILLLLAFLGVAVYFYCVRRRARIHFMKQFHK
UniProt P06240: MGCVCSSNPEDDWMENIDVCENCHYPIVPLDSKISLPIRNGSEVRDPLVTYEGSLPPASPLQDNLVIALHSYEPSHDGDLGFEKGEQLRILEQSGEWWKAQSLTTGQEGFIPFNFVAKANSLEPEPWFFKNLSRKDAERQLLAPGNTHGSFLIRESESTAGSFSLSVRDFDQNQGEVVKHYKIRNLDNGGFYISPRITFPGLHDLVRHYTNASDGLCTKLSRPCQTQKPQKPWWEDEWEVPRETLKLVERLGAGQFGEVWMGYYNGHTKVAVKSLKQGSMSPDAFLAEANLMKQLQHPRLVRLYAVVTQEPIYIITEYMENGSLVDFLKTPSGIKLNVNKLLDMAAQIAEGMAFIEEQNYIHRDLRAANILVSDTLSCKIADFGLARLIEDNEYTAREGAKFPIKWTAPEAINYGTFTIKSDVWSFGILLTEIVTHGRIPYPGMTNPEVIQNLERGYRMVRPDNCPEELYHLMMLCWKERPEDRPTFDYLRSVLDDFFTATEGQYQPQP

Assays:
[1] = molecular target: CD4 co-receptor (mouse) (mouse (endogenous in thymocytes)) (UniProt P06332); experiment: co-IP; live total thymocytes (2-3 x 10^7) of Lck-variant mice stained with biotinylated anti-CD4 (GK1.5) or anti-CD8β (53-5.8), lysed in 1% lauryl-β-D-maltoside, 30 mM Tris pH 7.4, 120 mM NaCl, 2 mM KCl, 10% glycerol; Streptavidin Mag Sepharose 2 h at 4 °C; immunoblot with anti-LCK (3A5) and anti-CD4 or anti-CD8α
[2] = molecular target: CD8 co-receptor (mouse CD8αβ) (mouse (endogenous in thymocytes)) (UniProt P01731+P10300); experiment: as above

Row | Substance | binding [1] | binding [2]
1 | LCK C20A.C23A (mouse, knock-in) (from UniProt P06240 1-509) (enzyme) | no binding | no binding
2 | LCK, wild type (mouse) (from UniProt P06240 1-509) (enzyme) | binds | binds
